Reference: US6403764
These are yes or no findings as the source states them, for the method shown. Some results given as binding are weak or reduced against the parent protein; the word gives no strength.

The chains behind the UniProt entries cited, without tags or fusion partners. Where a name states a change or a piece, a line headed by the entry shows the natural chain unless it says otherwise. Residues count along the entry.
UniProt P17936, residues 28-291: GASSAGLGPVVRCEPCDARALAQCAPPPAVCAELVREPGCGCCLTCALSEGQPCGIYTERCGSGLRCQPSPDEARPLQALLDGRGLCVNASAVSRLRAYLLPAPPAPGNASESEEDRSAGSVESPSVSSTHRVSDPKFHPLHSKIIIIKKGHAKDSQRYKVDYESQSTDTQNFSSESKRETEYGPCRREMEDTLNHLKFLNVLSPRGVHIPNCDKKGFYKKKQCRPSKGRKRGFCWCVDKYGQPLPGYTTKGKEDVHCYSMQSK
UniProt P05019: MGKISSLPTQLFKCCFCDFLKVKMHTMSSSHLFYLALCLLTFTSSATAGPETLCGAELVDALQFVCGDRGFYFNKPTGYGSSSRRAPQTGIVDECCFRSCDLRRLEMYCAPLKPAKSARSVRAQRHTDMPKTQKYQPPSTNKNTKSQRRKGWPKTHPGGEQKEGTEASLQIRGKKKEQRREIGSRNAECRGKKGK

Legend:
human IGFBP-1 = target: T1, human IGFBP-1 (human, UniProt P08833 26-259); assay: BIACORE
T1 construct: mature; Secreted recombinant protein; also called IGFBP-I
T1 sequence (looked up): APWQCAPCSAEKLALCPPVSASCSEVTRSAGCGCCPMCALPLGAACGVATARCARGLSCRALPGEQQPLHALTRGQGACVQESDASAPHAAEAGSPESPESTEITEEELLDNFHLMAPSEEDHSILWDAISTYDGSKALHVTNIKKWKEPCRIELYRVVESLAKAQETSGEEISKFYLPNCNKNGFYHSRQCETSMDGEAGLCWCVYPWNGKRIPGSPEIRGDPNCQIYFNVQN

[1] = target: T2, recombinant human IGFBP-3 (human, UniProt P17936 28-291); assay: BIACORE
T2 construct: mature; Secreted recombinant protein

binding (human IGFBP-1): binds
binding [1]: binds
Substance: G1S-A70V IGF-I, purified soluble (from UniProt P05019 50-117) (ligand)
